PubChem BioAssay AID1259308 – NCATS, 2017
The deposit covers about 59,000 reagents; this is a part drawn at random. Over the whole deposit, about 1,510 (2.6%) got an active call. 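Calls use total luciferase alone and ignore viability, so some active siRNAs may act by altering cell number.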 Further read-outs or replicates are left out here.

- Screen: 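Genes whose loss raises luciferase production in HEK293 cells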 (primary screen)
- System: human HEK293 embryonic kidney cells stably expressing firefly luciferase (HEK-CMV-Luc2-Hygro)
- Reagent: single siRNA against human genes, 0.8 pmol siRNA per well
- Duration: 72 h
- Read-out: 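Reporter luminescence and viable-cell signal on separate replicate plates, given as percent of non-targeting control and median/MAD z-scores, plus per-cell luciferase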
- Direction: total luciferase, z-score: higher = more reporter protein produced
- Active means: 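Active when the median/MAD z-score for overall luciferase is greater than 3; a gene was taken forward for validation with new siRNAs if at least two of its three siRNAs passed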
- Calls: active = raised luciferase; inactive = no rise

| gene | PubChem SID | total luciferase, z-score | Call |
| --- | --- | --- | --- |
| CPLX4 (complexin 4) | SID160764193 | 1.06 | inactive |
| CPLX4 (complexin 4) | SID160764194 | -1.49 | inactive |
| CPLX4 (complexin 4) | SID160764195 | 0.0165 | inactive |
| PLAAT3 (phospholipase A and acyltransferase 3) | SID160730037 | 0.5 | inactive |
| PLAAT3 (phospholipase A and acyltransferase 3) | SID160730038 | 1.77 | inactive |
| PLAAT3 (phospholipase A and acyltransferase 3) | SID160730512 | -0.507 | inactive |
| ERO1A (endoplasmic reticulum oxidoreductase 1 alpha) | SID160739479 | -0.177 | inactive |
| ERO1A (endoplasmic reticulum oxidoreductase 1 alpha) | SID160739480 | 1.24 | inactive |
| ERO1A (endoplasmic reticulum oxidoreductase 1 alpha) | SID160739481 | -0.303 | inactive |
| CACNG4 (calcium voltage-gated channel auxiliary subunit gamma 4) | SID160738354 | -0.293 | inactive |
| CACNG4 (calcium voltage-gated channel auxiliary subunit gamma 4) | SID160738355 | -0.535 | inactive |
| CACNG4 (calcium voltage-gated channel auxiliary subunit gamma 4) | SID160738356 | -0.672 | inactive |
| S1PR4 (sphingosine-1-phosphate receptor 4) | SID160724184 | -0.0317 | inactive |
| S1PR4 (sphingosine-1-phosphate receptor 4) | SID160724186 | -1.23 | inactive |
| S1PR4 (sphingosine-1-phosphate receptor 4) | SID160732088 | 0.0573 | inactive |
| RHBDF2 (rhomboid 5 homolog 2) | SID160749100 | 0.808 | inactive |
| RHBDF2 (rhomboid 5 homolog 2) | SID160749101 | -0.785 | inactive |
| RHBDF2 (rhomboid 5 homolog 2) | SID160749102 | -1.86 | inactive |
| RPS3A (ribosomal protein S3A) | SID160716131 | -2.61 | inactive |
| RPS3A (ribosomal protein S3A) | SID160716132 | -2.52 | inactive |
| RPS3A (ribosomal protein S3A) | SID160716134 | -2.45 | inactive |
| MGC70870 (C-terminal binding protein 2 pseudogene) | SID160767515 | 0.361 | inactive |
| MGC70870 (C-terminal binding protein 2 pseudogene) | SID160767516 | -0.121 | inactive |
| MGC70870 (C-terminal binding protein 2 pseudogene) | SID160767517 | 0.931 | inactive |

Targets above whose gene name starts with P or p:
| gene | PubChem SID | total luciferase, z-score | Call |
| --- | --- | --- | --- |
| PLAAT3 (phospholipase A and acyltransferase 3) | SID160730037 | 0.5 | inactive |
| PLAAT3 (phospholipase A and acyltransferase 3) | SID160730038 | 1.77 | inactive |
| PLAAT3 (phospholipase A and acyltransferase 3) | SID160730512 | -0.507 | inactive |
